# Primary screen of a compound library

Protein sequences, listed by entry. Tags and fused reporters are not part of them.
UniProt E9BF75, entry or part of it: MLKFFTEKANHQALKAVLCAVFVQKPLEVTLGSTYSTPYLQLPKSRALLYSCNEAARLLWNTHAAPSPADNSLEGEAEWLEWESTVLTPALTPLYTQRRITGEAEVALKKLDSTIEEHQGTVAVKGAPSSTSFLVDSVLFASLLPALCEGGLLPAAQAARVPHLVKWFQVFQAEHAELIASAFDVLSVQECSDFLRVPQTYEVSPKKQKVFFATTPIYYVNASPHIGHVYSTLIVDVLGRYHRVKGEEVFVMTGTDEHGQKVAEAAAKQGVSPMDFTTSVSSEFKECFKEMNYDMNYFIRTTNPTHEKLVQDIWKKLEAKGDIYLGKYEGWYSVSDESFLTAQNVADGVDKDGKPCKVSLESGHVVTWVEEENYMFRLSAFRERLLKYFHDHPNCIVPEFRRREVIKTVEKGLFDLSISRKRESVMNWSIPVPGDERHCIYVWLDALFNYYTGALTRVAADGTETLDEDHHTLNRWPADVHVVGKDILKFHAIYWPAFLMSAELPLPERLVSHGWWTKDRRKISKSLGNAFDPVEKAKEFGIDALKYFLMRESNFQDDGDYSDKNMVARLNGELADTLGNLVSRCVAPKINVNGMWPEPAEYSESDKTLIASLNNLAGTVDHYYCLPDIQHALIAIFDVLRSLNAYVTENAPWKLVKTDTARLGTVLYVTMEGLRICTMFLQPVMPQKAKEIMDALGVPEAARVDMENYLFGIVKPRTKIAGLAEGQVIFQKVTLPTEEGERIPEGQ

Measurements from “University of Dundee, Small-Polar-MMV Screening Library” (2021), ChEMBL document CHEMBL3988442.

All values are in %. How 0% and 100% were set is not recorded. Most values in the screen are low, and negative values occur. Compounds were drawn at random from those tested, without regard to their results.

LdMetRS: 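Methionyl-tRNA synthetase (putative), Leishmania donovani (UniProt E9BF75). Primary screen of methionyl-tRNA synthetase; the read-out is not stated. The test concentration is not given. The values are filed as inhibition. Of about 68,000 compounds tested this way, about 24 (0.035%) reached 50% or more in at least one test.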
Mtb heat-shock: 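Assay on Mycobacterium tuberculosis, filed only as a heat shock assay from Cornell; the read-out is not stated. The concentration is filed as 10 mM, unlikely as a test dose, so the dose is not known. Direction is inferred from retests: higher values go with stronger inhibition. About 69,000 compounds were tested under these conditions; 1.4% (about 930) showed 50% or more at least once.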

- Fc1cccc2ncnc(NCCCc3ccncc3)c12 | LdMetRS: 14.07%; Mtb heat-shock: 10.41%
- CC(C)C[C@H](N)C(=O)N1CC2(CCNCC2)c2cc(Cl)ccc21 | LdMetRS: 22.76%
- Cc1nc2c(c(NCC(=O)NC(C)C)n1)Cc1ccccc1OC2 | LdMetRS: 20.43%; Mtb heat-shock: -14.9%
- CCSCCNc1cc(C)nc2c(C)c(C)nn12 | LdMetRS: 18.62%; Mtb heat-shock: 105.5%
- CNc1cc(CNC(=O)c2ccccc2OC)nc(-c2ccncc2)n1 | LdMetRS: 12.94%; Mtb heat-shock: 4.859%
- COCC(NC1CCN(CC(C)C)CC1)c1ccnn1C (centres unmarked) | LdMetRS: 10.66%; Mtb heat-shock: -0.4715%
- CCc1nccn1CC(=O)N1C[C@H]2CC[C@@H]1CN(C(=O)N(C)C)C2 | LdMetRS: 15.32%
- Cn1ccnc1CN(CCO)C(=O)c1nc2ccccc2s1 | LdMetRS: 8.533%; Mtb heat-shock: 4.11%
- NC(=O)C1(CCCc2ccccn2)CCCN(Cc2ccncc2)C1 (centres unmarked) | LdMetRS: 15.25%; Mtb heat-shock: -11.35%
- c1ccc(-c2noc(CN3CCCC(Cn4cncn4)C3)n2)nc1 (centres unmarked) | LdMetRS: 17.18%; Mtb heat-shock: -14.45%
- O=C(O)C(F)(F)F.[H][C@@]12CCCO[C@]1([H])[C@@H](OCc1ccncc1)CN2C(=O)CC1CCCC1 | Mtb heat-shock: -18.92%
- COc1ccc(OCC(=O)NS(=O)(=O)c2cc(C)ccc2C)cc1 | LdMetRS: 12.57%; Mtb heat-shock: -9.097%
- CCN(CC)CCCNc1nccc(-c2cn(C)nc2C)n1 | LdMetRS: 3.297%; Mtb heat-shock: 10.57%
- Cc1nc(C)n(CC2CN(CCn3cccn3)CCO2)n1 (centres unmarked) | LdMetRS: 9.03%; Mtb heat-shock: -26.79%
- O=C1COC2(CCN(Cc3ccoc3)CC2)CN1c1ccsc1 | LdMetRS: 10.1%
- COc1ccc(CC(=O)N2CCCC(n3cc(C)cn3)C2)cc1F (centres unmarked) | LdMetRS: 6.294%; Mtb heat-shock: 0.2124%
- O=C(Nc1ccccc1)[C@H]1C[C@@H]2CN(S(=O)(=O)C3CC3)C[C@H]1O2 | LdMetRS: 13.54%
- Cn1cc(C2(C)CN(Cc3ccc(O)c(Cl)c3)CCO2)cn1 (centres unmarked) | LdMetRS: 16.03%; Mtb heat-shock: -4.766%
- CC(=O)N(C)c1nc(CN2CCCC2Cn2cncn2)cs1 (centres unmarked) | LdMetRS: 24.22%; Mtb heat-shock: -13.91%
- COCC(=O)N1CCC2(CCc3ccc(F)cc32)CC1.Cl | Mtb heat-shock: -2.219%
- CN(Cc1ncc(-c2ccccc2)o1)C1CCCN(c2cccnn2)C1 (centres unmarked) | LdMetRS: 3.655%; Mtb heat-shock: 24.44%
- CN(C)C(=O)[C@@H]1CCO[C@@H]2CCN(CCOCc3ccccc3)C[C@H]21 | LdMetRS: 1.545%
- CC1=C[C@@H](CN2CCOCC2)[C@H](C(C)C)C[C@H]1Cc1nnc(C)o1 | LdMetRS: 1.504%; Mtb heat-shock: -14.33%
- CN(Cc1cccnc1)CC1CN(C(N)=O)Cc2nccn2C1 (centres unmarked) | LdMetRS: 12.38%; Mtb heat-shock: 2.392%
- CC1CCCN(CCNC(=O)c2cncnc2C(C)C)C1 (centres unmarked) | LdMetRS: 18.58%; Mtb heat-shock: 0.6084%
- CC(C)Oc1cc(N2CCCC(O)C2)nc(N)n1 (centres unmarked) | LdMetRS: 8.614%; Mtb heat-shock: -13.56%
- Cl.Cl.O=C(NCc1cncc2c1CCN(Cc1ccccc1)C2)C1CC1 | Mtb heat-shock: -21.08%
- O=C(Nc1ccccc1-c1ccccc1)NC1CCC2(C1)OCCO2 (centres unmarked) | LdMetRS: 3.432%; Mtb heat-shock: -4.492%
- [H][C@]12CC[C@]([H])(CN(CC(=O)N(C)C)C1)N(Cc1cccc(Cl)c1Cl)C2 | Mtb heat-shock: -14.5%
- OC1(CNc2ccc(-c3nc(C4CC4)no3)cn2)CCCCC1 | LdMetRS: -1.049%; Mtb heat-shock: -8.814%
- Cc1nc(CCN)cc(N2CCC(O)(c3ccc(Cl)cc3)CC2)n1 | LdMetRS: 29.57%; Mtb heat-shock: -16.16%
- O=C(C1CC1)N1C[C@H]2CNC[C@@]2(C(=O)NCCCc2ccccc2)C1 | LdMetRS: 13.87%
- COc1ccc(OC)c(C2CCN(C(=O)C3CCOCC3)C2)c1 (centres unmarked) | LdMetRS: 4.668%; Mtb heat-shock: 11.94%
- O=C(O)[C@]12CCCN(Cc3ccco3)C[C@H]1CN(c1ncccn1)C2 | LdMetRS: 6.84%
- CC(C)(O)CN1CCN(C(=O)COCC(F)(F)F)CC1 | LdMetRS: 5.556%; Mtb heat-shock: 3.557%
- CCOCCNC(=O)Nc1ccc(OCc2noc(C3CC3)n2)cc1 | LdMetRS: 10.44%; Mtb heat-shock: -1.399%
- c1cnn(CCNCc2ccc(N3CCCCC3)cc2)c1 | LdMetRS: 19.23%; Mtb heat-shock: -6.454%
- Cc1ccccc1CSc1nc(N)cc(N2CCCC(O)C2)n1 (centres unmarked) | Mtb heat-shock: 1.948%
- NC(=O)CN(C(=O)C1Cc2cc(Cl)ccc2O1)C1CCCC1 (centres unmarked) | LdMetRS: 3.597%; Mtb heat-shock: -19.13%
- COc1cccc(C(=O)N2CCN(C(=O)CCCc3cn[nH]c3)CC2)c1 | LdMetRS: 17.33%; Mtb heat-shock: -30.44%
- Cc1nc(-c2ccc(C(=O)O)cc2)cc(C2CCCN(C(C)C)C2)n1 (centres unmarked) | LdMetRS: 6.068%; Mtb heat-shock: -23.76%
- CC(C)NC(=O)c1nc2c(s1)CCCN2Cc1ccccc1 | LdMetRS: 17.07%; Mtb heat-shock: 16.22%